No constants are given. Whether binding was seen depends on the method and setting. Binding seen in cells or lysates may run through a third protein. Binding can be weak; no strength is given.
Molecular target: fAIF carrying the C-terminal fragment of YFP (YC-AIF) (UniProt O95831)
Assay: split reporter; BiFC with split YFP in co-transfected U87MG cells, confocal microscopy 24 h post-transfection

Sequences of proteins named here, by UniProt entry; tags and fusion partners are left off. A change or cut given only in a name is not applied to a line headed by its entry. Residues count along the entry.
UniProt O95831: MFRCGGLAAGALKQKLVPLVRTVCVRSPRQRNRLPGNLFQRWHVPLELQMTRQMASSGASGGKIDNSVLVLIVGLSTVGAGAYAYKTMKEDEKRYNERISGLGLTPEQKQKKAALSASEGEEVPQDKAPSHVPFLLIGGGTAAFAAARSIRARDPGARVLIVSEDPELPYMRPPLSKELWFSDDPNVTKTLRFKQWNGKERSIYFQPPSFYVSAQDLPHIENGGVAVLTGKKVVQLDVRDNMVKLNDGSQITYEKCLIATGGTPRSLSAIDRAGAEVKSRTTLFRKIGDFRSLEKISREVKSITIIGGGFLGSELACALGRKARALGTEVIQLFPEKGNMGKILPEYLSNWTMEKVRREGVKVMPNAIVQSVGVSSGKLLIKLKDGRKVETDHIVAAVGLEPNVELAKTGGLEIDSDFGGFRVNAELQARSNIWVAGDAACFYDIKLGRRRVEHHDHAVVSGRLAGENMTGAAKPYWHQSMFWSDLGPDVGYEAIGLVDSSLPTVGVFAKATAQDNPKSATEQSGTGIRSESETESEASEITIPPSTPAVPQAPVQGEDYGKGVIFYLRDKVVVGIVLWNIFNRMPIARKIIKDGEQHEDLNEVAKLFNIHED
UniProt P38646, residues 47-679: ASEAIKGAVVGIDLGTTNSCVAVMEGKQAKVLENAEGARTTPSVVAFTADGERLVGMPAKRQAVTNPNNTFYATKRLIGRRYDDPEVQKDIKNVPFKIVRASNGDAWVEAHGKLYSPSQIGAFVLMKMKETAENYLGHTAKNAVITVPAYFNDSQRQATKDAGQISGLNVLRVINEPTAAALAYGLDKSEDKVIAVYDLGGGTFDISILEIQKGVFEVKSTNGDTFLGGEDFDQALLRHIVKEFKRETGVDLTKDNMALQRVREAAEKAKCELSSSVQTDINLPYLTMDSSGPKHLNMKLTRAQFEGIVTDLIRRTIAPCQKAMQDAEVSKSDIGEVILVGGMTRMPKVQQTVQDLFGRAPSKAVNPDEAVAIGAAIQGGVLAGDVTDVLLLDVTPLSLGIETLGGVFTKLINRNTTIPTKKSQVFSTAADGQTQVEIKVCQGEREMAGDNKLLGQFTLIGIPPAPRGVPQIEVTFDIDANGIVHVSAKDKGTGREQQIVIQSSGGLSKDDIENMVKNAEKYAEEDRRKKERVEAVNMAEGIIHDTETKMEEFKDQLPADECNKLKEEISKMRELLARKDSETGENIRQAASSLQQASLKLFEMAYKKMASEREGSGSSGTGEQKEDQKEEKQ

In the case of “mortalin bound to the N-terminal fragment of YFP (Mort-YN) (from UniProt P38646 47-679)”, the binding was “binds”.
